{"source": "PubChem BioAssay AID330", "about": "(DTP/NCI, 2004)", "tested_on": "P388 leukemia ip, CD2F1 mice, survival T/C", "experiment": "NCI In Vivo Anticancer Drug Screen. Data for tumor model P388 Leukemia (intraperitoneal) in CD2F1 (CDF1) mice", "details": "T/C endpoint: median survival time, higher T/C = longer survival", "note": "The list does not hold the whole screen: it covers a few groups of compounds. Other doses and runs of a compound may be missing. T/C: endpoint of the treated group in % of that of the vehicle group. Some doses have a count of surviving animals in place of a T/C: the source holds a T/C of zero for them, seemingly a mark for toxic or unscored doses. Some survivor counts are full or nearly so, which does not show that the dose was tolerated: the source hardly ever lists a survival T/C far under the control, and the zero likely stands for such cases as well. Survivors were counted at the toxicity check, usually on the fifth day, unless a day is given; later deaths do not show. Schedule codes are those of the source, read here as Q, the interval in days (D) or hours (H), X, the number of doses. For survival time, the PubChem record calls one and a half times the control and up active, and a quarter to a half above the control has no call in these data; cut-offs in other NCI protocols can differ. Some T/C values are followed by the survivors on the day toxicity was checked, most often the fifth; without a count or a note in brackets, all were alive then.", "data": [{"smiles": "O=NN1CCN/C1=N\\[N+](=O)[O-]", "values": [{"measurement": "survivor count", "setting": "dose: 4.0 mg/kg/injection, schedule: Q03HX024 (ip), vehicle: Klucel (hydroxypropylcellulose) (HPC)", "result": "9 of 10"}, {"measurement": "T/C", "setting": "dose: 8.0 mg/kg/injection, schedule: Q03HX016 (ip), vehicle: Klucel (hydroxypropylcellulose) (HPC)", "result": "87 % of control [9 of 10 alive]"}, {"measurement": "T/C", "setting": "dose: 8.0 mg/kg/injection, schedule: Q03HX024 (ip), vehicle: Klucel (hydroxypropylcellulose) (HPC)", "result": "100 % of control [9 of 10 alive]"}, {"measurement": "T/C", "setting": "dose: 16.0 mg/kg/injection, schedule: Q03HX008 (ip), vehicle: Klucel (hydroxypropylcellulose) (HPC)", "result": "102 % of control"}, {"measurement": "T/C", "setting": "dose: 16.0 mg/kg/injection, schedule: Q03HX016 (ip), vehicle: Klucel (hydroxypropylcellulose) (HPC)", "result": "106 % of control"}, {"measurement": "T/C", "setting": "dose: 16.0 mg/kg/injection, schedule: Q03HX024 (ip), vehicle: Klucel (hydroxypropylcellulose) (HPC)", "result": "101 % of control [7 of 10 alive]"}, {"measurement": "T/C", "setting": "dose: 32.0 mg/kg/injection, schedule: Q01DX009 (ip), vehicle: Klucel (hydroxypropylcellulose) (HPC)", "result": "111 % of control"}, {"measurement": "T/C", "setting": "dose: 32.0 mg/kg/injection, schedule: Q01DX009 (sc), vehicle: Klucel (hydroxypropylcellulose) (HPC)", "result": "100 % of control"}, {"measurement": "T/C", "setting": "dose: 32.0 mg/kg/injection, schedule: Q03HX008 (ip), vehicle: Klucel (hydroxypropylcellulose) (HPC)", "result": "111 % of control [9 of 10 alive]"}, {"measurement": "T/C", "setting": "dose: 32.0 mg/kg/injection, schedule: Q03HX016 (ip), vehicle: Klucel (hydroxypropylcellulose) (HPC)", "result": "103 % of control [9 of 10 alive]"}, {"measurement": "T/C", "setting": "dose: 32.0 mg/kg/injection, schedule: Q03HX024 (ip), vehicle: Klucel (hydroxypropylcellulose) (HPC)", "result": "87 % of control [9 of 10 alive]"}, {"measurement": "T/C", "setting": "dose: 32.0 mg/kg/injection, schedule: Q04DX003 (ip), vehicle: Klucel (hydroxypropylcellulose) (HPC)", "result": "113 % of control"}, {"measurement": "T/C", "setting": "dose: 64.0 mg/kg/injection, schedule: Q01DX009 (ip), vehicle: Klucel (hydroxypropylcellulose) (HPC)", "result": "119 % of control"}, {"measurement": "T/C", "setting": "dose: 64.0 mg/kg/injection, schedule: Q01DX009 (sc), vehicle: Klucel (hydroxypropylcellulose) (HPC)", "result": "106 % of control"}, {"measurement": "T/C", "setting": "dose: 64.0 mg/kg/injection, schedule: Q03HX008 (ip), vehicle: Klucel (hydroxypropylcellulose) (HPC)", "result": "110 % of control [8 of 10 alive]"}, {"measurement": "survivor count", "setting": "dose: 64.0 mg/kg/injection, schedule: Q03HX016 (ip), vehicle: Klucel (hydroxypropylcellulose) (HPC)", "result": "5 of 10"}, {"measurement": "survivor count", "setting": "dose: 64.0 mg/kg/injection, schedule: Q03HX024 (ip), vehicle: Klucel (hydroxypropylcellulose) (HPC)", "result": "3 of 10"}, {"measurement": "T/C", "setting": "dose: 64.0 mg/kg/injection, schedule: Q04DX003 (ip), vehicle: Klucel (hydroxypropylcellulose) (HPC)", "result": "113 % of control"}, {"measurement": "T/C", "setting": "dose: 64.0 mg/kg/injection, schedule: Q08DX002 (ip), vehicle: Klucel (hydroxypropylcellulose) (HPC)", "result": "106 % of control"}, {"measurement": "T/C", "setting": "dose: 100.0 mg/kg/injection, schedule: Q04DX003 (ip), vehicle: Klucel (hydroxypropylcellulose) (HPC)", "result": "118 % of control"}, {"measurement": "T/C", "setting": "dose: 128.0 mg/kg/injection, schedule: Q01DX001 (ip), vehicle: Klucel (hydroxypropylcellulose) (HPC)", "result": "102 % of control [8 of 10 alive]"}, {"measurement": "T/C", "setting": "dose: 128.0 mg/kg/injection, schedule: Q01DX001 (sc), vehicle: Klucel (hydroxypropylcellulose) (HPC)", "result": "108 % of control [7 of 10 alive]"}, {"measurement": "T/C", "setting": "dose: 128.0 mg/kg/injection, schedule: Q01DX009 (ip), vehicle: Klucel (hydroxypropylcellulose) (HPC)", "result": "105 % of control"}, {"measurement": "T/C", "setting": "dose: 128.0 mg/kg/injection, schedule: Q01DX009 (oral), vehicle: Klucel (hydroxypropylcellulose) (HPC)", "result": "99 % of control"}, {"measurement": "T/C", "setting": "dose: 128.0 mg/kg/injection, schedule: Q01DX009 (sc), vehicle: Klucel (hydroxypropylcellulose) (HPC)", "result": "103 % of control"}, {"measurement": "survivor count", "setting": "dose: 128.0 mg/kg/injection, schedule: Q03HX008 (ip), vehicle: Klucel (hydroxypropylcellulose) (HPC)", "result": "0 of 10"}, {"measurement": "survivor count", "setting": "dose: 128.0 mg/kg/injection, schedule: Q03HX016 (ip), vehicle: Klucel (hydroxypropylcellulose) (HPC)", "result": "0 of 10"}, {"measurement": "T/C", "setting": "dose: 128.0 mg/kg/injection, schedule: Q04DX003 (ip), vehicle: Klucel (hydroxypropylcellulose) (HPC)", "result": "112 % of control"}, {"measurement": "T/C", "setting": "dose: 128.0 mg/kg/injection, schedule: Q08DX002 (ip), vehicle: Klucel (hydroxypropylcellulose) (HPC)", "result": "105 % of control"}, {"measurement": "T/C", "setting": "dose: 200.0 mg/kg/injection, schedule: Q04DX003 (ip), vehicle: Klucel (hydroxypropylcellulose) (HPC)", "result": "109 % of control"}, {"measurement": "T/C", "setting": "dose: 256.0 mg/kg/injection, schedule: Q01DX001 (ip), vehicle: Klucel (hydroxypropylcellulose) (HPC)", "result": "112 % of control [7 of 10 alive]"}, {"measurement": "T/C", "setting": "dose: 256.0 mg/kg/injection, schedule: Q01DX001 (oral), vehicle: Klucel (hydroxypropylcellulose) (HPC)", "result": "99 % of control"}, {"measurement": "survivor count", "setting": "dose: 256.0 mg/kg/injection, schedule: Q01DX001 (sc), vehicle: Klucel (hydroxypropylcellulose) (HPC)", "result": "6 of 10"}, {"measurement": "survivor count", "setting": "dose: 256.0 mg/kg/injection, schedule: Q01DX009 (ip), vehicle: Klucel (hydroxypropylcellulose) (HPC)", "result": "3 of 10"}, {"measurement": "T/C", "setting": "dose: 256.0 mg/kg/injection, schedule: Q01DX009 (oral), vehicle: Klucel (hydroxypropylcellulose) (HPC)", "result": "95 % of control"}, {"measurement": "T/C", "setting": "dose: 256.0 mg/kg/injection, schedule: Q01DX009 (sc), vehicle: Klucel (hydroxypropylcellulose) (HPC)", "result": "103 % of control"}, {"measurement": "survivor count", "setting": "dose: 256.0 mg/kg/injection, schedule: Q03HX008 (ip), vehicle: Klucel (hydroxypropylcellulose) (HPC)", "result": "0 of 10"}, {"measurement": "T/C", "setting": "dose: 256.0 mg/kg/injection, schedule: Q04DX003 (ip), vehicle: Klucel (hydroxypropylcellulose) (HPC)", "result": "115 % of control"}, {"measurement": "T/C", "setting": "dose: 256.0 mg/kg/injection, schedule: Q08DX002 (ip), vehicle: Klucel (hydroxypropylcellulose) (HPC)", "result": "100 % of control"}, {"measurement": "survivor count", "setting": "dose: 400.0 mg/kg/injection, schedule: Q04DX003 (ip), vehicle: Klucel (hydroxypropylcellulose) (HPC)", "result": "3 of 6"}, {"measurement": "survivor count", "setting": "dose: 512.0 mg/kg/injection, schedule: Q01DX001 (ip), vehicle: Klucel (hydroxypropylcellulose) (HPC)", "result": "0 of 10"}, {"measurement": "T/C", "setting": "dose: 512.0 mg/kg/injection, schedule: Q01DX001 (oral), vehicle: Klucel (hydroxypropylcellulose) (HPC)", "result": "100 % of control [9 of 10 alive]"}, {"measurement": "survivor count", "setting": "dose: 512.0 mg/kg/injection, schedule: Q01DX001 (sc), vehicle: Klucel (hydroxypropylcellulose) (HPC)", "result": "3 of 10"}, {"measurement": "survivor count", "setting": "dose: 512.0 mg/kg/injection, schedule: Q01DX009 (ip), vehicle: Klucel (hydroxypropylcellulose) (HPC)", "result": "0 of 10"}, {"measurement": "T/C", "setting": "dose: 512.0 mg/kg/injection, schedule: Q01DX009 (oral), vehicle: Klucel (hydroxypropylcellulose) (HPC)", "result": "95 % of control"}, {"measurement": "survivor count", "setting": "dose: 512.0 mg/kg/injection, schedule: Q01DX009 (sc), vehicle: Klucel (hydroxypropylcellulose) (HPC)", "result": "4 of 10"}, {"measurement": "survivor count", "setting": "dose: 512.0 mg/kg/injection, schedule: Q04DX003 (ip), vehicle: Klucel (hydroxypropylcellulose) (HPC)", "result": "5 of 10"}, {"measurement": "survivor count", "setting": "dose: 512.0 mg/kg/injection, schedule: Q08DX002 (ip), vehicle: Klucel (hydroxypropylcellulose) (HPC)", "result": "1 of 10"}, {"measurement": "survivor count", "setting": "dose: 1024.0 mg/kg/injection, schedule: Q01DX001 (ip), vehicle: Klucel (hydroxypropylcellulose) (HPC)", "result": "0 of 10"}, {"measurement": "survivor count", "setting": "dose: 1024.0 mg/kg/injection, schedule: Q01DX001 (oral), vehicle: Klucel (hydroxypropylcellulose) (HPC)", "result": "5 of 10"}, {"measurement": "survivor count", "setting": "dose: 1024.0 mg/kg/injection, schedule: Q01DX001 (sc), vehicle: Klucel (hydroxypropylcellulose) (HPC)", "result": "2 of 10"}, {"measurement": "survivor count", "setting": "dose: 1024.0 mg/kg/injection, schedule: Q01DX009 (oral), vehicle: Klucel (hydroxypropylcellulose) (HPC)", "result": "5 of 10"}, {"measurement": "survivor count", "setting": "dose: 1024.0 mg/kg/injection, schedule: Q08DX002 (ip), vehicle: Klucel (hydroxypropylcellulose) (HPC)", "result": "0 of 10"}, {"measurement": "survivor count", "setting": "dose: 2048.0 mg/kg/injection, schedule: Q01DX001 (ip), vehicle: Klucel (hydroxypropylcellulose) (HPC)", "result": "0 of 10"}, {"measurement": "survivor count", "setting": "dose: 2048.0 mg/kg/injection, schedule: Q01DX001 (oral), vehicle: Klucel (hydroxypropylcellulose) (HPC)", "result": "0 of 10"}, {"measurement": "survivor count", "setting": "dose: 2048.0 mg/kg/injection, schedule: Q01DX001 (sc), vehicle: Klucel (hydroxypropylcellulose) (HPC)", "result": "0 of 10"}]}, {"smiles": "O=P1(Cl)OC(c2ccc(Cl)cc2Cl)=CCN1c1ccccc1", "note": "(configuration not stated)", "values": [{"measurement": "T/C", "setting": "dose: 25.0 mg/kg/injection, schedule: Q01DX005 (ip), vehicle: saline with Tween-80", "result": "107 % of control"}, {"measurement": "T/C", "setting": "dose: 50.0 mg/kg/injection, schedule: Q01DX005 (ip), vehicle: saline with Tween-80", "result": "106 % of control"}, {"measurement": "T/C", "setting": "dose: 100.0 mg/kg/injection, schedule: Q01DX005 (ip), vehicle: saline with Tween-80", "result": "104 % of control"}]}, {"smiles": "O=C(C(=O)c1c([N+](=O)[O-])cc([N+](=O)[O-])cc1[N+](=O)[O-])c1c([N+](=O)[O-])cc([N+](=O)[O-])cc1[N+](=O)[O-]", "values": [{"measurement": "T/C", "setting": "dose: 100.0 mg/kg/injection, schedule: Q04DX003 (ip), vehicle: saline", "result": "94 % of control"}, {"measurement": "T/C", "setting": "dose: 200.0 mg/kg/injection, schedule: Q04DX003 (ip), vehicle: saline", "result": "93 % of control"}, {"measurement": "T/C", "setting": "dose: 400.0 mg/kg/injection, schedule: Q04DX003 (ip), vehicle: saline", "result": "89 % of control"}]}]}
